Four substances from doi:10.1101/455378 can be followed below.

By UniProt entry, the sequences of proteins in these tests, tags left out. Where a name states a change or a piece, a line headed by the entry shows the natural chain unless it says otherwise.
UniProt Q4P8R9: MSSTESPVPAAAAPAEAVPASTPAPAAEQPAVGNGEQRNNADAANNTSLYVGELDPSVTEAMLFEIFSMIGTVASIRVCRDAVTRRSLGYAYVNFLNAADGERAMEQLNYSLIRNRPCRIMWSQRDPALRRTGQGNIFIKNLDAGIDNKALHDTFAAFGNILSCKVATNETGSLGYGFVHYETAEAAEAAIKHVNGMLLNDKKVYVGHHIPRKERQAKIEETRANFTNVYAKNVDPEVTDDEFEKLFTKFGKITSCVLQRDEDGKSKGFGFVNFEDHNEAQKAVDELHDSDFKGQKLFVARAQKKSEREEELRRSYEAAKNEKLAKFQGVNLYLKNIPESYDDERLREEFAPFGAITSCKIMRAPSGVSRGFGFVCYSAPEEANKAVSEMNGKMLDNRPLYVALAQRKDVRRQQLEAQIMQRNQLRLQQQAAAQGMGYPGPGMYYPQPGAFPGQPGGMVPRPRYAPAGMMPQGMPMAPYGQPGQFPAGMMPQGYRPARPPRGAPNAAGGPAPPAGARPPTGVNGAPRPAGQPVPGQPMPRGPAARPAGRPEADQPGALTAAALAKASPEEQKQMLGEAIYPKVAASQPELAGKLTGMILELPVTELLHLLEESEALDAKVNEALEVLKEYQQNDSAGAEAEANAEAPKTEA
UniProt A0A0D1DRJ3: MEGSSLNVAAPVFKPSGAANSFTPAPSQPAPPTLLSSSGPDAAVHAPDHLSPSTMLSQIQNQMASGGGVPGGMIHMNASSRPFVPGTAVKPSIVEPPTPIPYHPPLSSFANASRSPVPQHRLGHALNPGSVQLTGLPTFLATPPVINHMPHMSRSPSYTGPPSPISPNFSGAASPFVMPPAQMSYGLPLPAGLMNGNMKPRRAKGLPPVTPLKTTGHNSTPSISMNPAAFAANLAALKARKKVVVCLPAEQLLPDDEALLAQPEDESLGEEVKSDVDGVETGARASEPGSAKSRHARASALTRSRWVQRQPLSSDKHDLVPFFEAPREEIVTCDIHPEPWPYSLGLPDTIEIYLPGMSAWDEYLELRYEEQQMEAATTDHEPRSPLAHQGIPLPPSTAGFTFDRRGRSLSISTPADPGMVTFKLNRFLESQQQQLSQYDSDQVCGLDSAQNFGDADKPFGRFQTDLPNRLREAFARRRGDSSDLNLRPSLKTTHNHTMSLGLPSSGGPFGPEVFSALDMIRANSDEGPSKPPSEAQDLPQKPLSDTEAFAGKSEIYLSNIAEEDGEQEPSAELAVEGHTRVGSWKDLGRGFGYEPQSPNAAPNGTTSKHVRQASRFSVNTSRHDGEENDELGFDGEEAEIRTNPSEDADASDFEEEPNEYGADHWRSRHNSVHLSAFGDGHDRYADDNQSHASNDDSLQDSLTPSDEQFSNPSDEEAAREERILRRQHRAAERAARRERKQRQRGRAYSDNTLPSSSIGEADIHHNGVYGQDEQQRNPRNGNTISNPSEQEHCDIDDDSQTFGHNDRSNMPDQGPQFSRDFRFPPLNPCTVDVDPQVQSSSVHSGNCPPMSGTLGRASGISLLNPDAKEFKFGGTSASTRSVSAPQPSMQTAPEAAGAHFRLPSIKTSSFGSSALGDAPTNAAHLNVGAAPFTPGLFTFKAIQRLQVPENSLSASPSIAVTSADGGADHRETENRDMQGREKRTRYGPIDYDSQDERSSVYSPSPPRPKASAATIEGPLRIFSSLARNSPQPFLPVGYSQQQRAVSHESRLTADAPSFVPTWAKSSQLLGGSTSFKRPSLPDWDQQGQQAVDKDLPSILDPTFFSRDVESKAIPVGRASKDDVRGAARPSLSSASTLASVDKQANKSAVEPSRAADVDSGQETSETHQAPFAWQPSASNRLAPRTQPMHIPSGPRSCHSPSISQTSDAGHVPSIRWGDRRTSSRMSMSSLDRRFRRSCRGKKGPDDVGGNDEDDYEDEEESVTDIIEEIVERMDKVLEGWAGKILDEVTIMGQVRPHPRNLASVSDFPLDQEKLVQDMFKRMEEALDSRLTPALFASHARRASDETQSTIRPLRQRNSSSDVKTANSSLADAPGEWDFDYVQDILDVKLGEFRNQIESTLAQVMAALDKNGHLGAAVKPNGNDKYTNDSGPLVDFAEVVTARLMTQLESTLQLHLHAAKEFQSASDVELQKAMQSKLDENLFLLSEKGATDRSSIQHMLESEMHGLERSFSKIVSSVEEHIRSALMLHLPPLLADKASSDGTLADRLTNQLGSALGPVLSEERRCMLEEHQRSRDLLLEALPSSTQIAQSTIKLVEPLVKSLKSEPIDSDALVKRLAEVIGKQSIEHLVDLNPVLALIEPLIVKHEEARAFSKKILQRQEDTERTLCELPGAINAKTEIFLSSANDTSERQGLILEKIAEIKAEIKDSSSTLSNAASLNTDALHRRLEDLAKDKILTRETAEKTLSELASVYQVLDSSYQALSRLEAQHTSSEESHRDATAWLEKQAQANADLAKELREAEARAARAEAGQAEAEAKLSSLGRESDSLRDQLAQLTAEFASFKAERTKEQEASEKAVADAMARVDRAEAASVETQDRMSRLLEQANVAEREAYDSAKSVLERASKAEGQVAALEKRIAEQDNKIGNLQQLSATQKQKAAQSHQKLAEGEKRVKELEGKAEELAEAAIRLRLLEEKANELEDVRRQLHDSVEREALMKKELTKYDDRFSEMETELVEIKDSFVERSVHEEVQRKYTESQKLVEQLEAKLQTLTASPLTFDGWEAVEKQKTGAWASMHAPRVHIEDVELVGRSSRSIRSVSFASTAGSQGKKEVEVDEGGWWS

These are yes or no findings as the source states them, for the method shown. Some results given as binding are weak or reduced against the parent protein; the word gives no strength.

Test in all cases: two-hybrid
Experiment [1] concerns the target full length Pab1 (poly(A)-binding protein) (Ustilago maydis) (UniProt Q4P8R9).
The target in a further experiment is Upa1 (Ustilago maydis).
The target in a further experiment is Rrm4 (Ustilago maydis).
For experiment [2], the target named is coiled coil region of Upa2 (amino acids 1712-2121) (Ustilago maydis).

As for “C-terminal part of Upa2 (aa 1217-2121) (from UniProt A0A0D1DRJ3 1217-2121) (domain or fragment)”, in experiment [1], the binding entry was “no binding”.

On to “Full-length Upa2 (Ustilago PAM2 protein 2) (from UniProt A0A0D1DRJ3 1-2121)”, for which the binding result is “no binding” in the experiment with Upa1 (Ustilago maydis), “no binding” with Rrm4 (Ustilago maydis) and “binds weakly” in experiment [1].

With “PAM2-containing N-terminal part of Upa2 (aa 1-1216) (from UniProt A0A0D1DRJ3 1-1216) (domain or fragment)”, in experiment [1], the binding entry was “binds”.

“coiled coil region of Upa2 (amino acids 1712-2121) (from UniProt A0A0D1DRJ3 1712-2121) (domain or fragment)”: the binding result in experiment [2] was “binds”.
